## Primary screen of a compound library

Protein sequences, listed by entry. Tags and fused reporters are not part of them.
UniProt E9BF75, entry or part of it: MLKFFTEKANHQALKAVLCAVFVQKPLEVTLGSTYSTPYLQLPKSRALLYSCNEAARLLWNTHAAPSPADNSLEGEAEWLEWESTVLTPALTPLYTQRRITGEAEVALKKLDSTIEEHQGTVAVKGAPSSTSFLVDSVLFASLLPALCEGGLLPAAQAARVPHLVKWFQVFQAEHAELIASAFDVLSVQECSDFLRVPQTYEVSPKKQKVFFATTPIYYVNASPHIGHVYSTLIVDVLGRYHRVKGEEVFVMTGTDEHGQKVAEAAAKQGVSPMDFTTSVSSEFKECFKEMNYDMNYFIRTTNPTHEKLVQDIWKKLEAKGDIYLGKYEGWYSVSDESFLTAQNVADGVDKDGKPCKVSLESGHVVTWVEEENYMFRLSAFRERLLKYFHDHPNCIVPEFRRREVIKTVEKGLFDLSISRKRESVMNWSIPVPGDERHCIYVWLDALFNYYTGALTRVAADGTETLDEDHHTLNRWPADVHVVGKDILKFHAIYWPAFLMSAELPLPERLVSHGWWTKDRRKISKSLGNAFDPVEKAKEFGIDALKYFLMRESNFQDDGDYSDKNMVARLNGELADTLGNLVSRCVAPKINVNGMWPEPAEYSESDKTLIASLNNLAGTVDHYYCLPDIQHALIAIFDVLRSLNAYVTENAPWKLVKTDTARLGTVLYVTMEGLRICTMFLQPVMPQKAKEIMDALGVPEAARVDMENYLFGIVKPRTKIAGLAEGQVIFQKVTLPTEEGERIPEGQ

From ChEMBL document CHEMBL3988442, “University of Dundee, Small-Polar-MMV Screening Library” (2021).

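Methionyl-tRNA synthetase (putative), Leishmania donovani (UniProt E9BF75). Primary screen of methionyl-tRNA synthetase; the read-out is not stated. The test concentration is not given. Values are per cent inhibition. Of about 68,000 compounds tested this way, about 24 (0.035%) reached 50% or more in at least one test.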

All values are in %.
The controls that fix the scale are not given in the record; negative values are as filed.
Compounds were drawn at random from those tested, without regard to their results.

compound	inhibition
CSCCc1c(-c2ccccc2)ncn1CC(C)(C)N1CCOCC1	11.39%
CN(CC(=O)N(C)C(c1ccc(Cl)cc1)c1cccnc1)C1CC1 (stereo not drawn)	11.26%
Cc1nn(C)c(C)c1C1CCCN1CC(=O)Nc1nccs1 (stereo not drawn)	19.33%
COCc1csc(NC(=O)NCc2ccsc2)n1	15.04%
CC(C)N1CCC(CC(=O)NC(C(=O)O)c2cc(F)ccc2F)CC1 (stereo not drawn)	8.242%
O=C(Cc1ccsc1)N1CCN(CCOc2ccccc2)CC1	12.78%
Cc1nn(C)c(C)c1OCC(=O)N1CCCCC1	18.79%
CCC(NC(=O)C1CCN(C(=O)C2CC2)CC1)c1cn2cccnc2n1 (stereo not drawn)	12.64%
COCC(=O)N1C[C@H]2CNC[C@@]2(C(=O)NCc2nc(C)cc(C)n2)C1	11.19%
O=C(c1cnc(O)c(Cl)c1)N1CCCC(c2nccs2)C1 (stereo not drawn)	9.346%
CCC1CN(CC(=O)N2CCCC2)CCN1CCOC (stereo not drawn)	17.66%
Cn1ncc2ccc(C3CCCN(C(=O)Cc4cccs4)C3)nc21 (stereo not drawn)	11.21%
CSc1ccc(NC(=O)NCc2nncn2C2CC2)cc1F	0.4819%
O=C(CN1CCCC(c2ccn[nH]2)C1)Nc1nc2c(s1)CCC2 (stereo not drawn)	10%
CCCn1cc(Cl)c(C(=O)N2C[C@@H](O)[C@H](Oc3ccccc3)C2)n1	1.869%
Cc1cc(C(=O)NCc2cccnc2N2CCc3ccccc3C2)[nH]n1	11.91%
CC(C)CS(=O)(=O)CCNC(=O)Nc1cccc2ncccc12	17.71%
CC(C)c1cc(C(=O)N2CCCN(Cc3ccccc3)CC2)n[nH]1	9.253%
CCCc1nnc(N2CCN(c3ccccc3Cl)CC2)o1	14.04%
CS(=O)(=O)N1C[C@@H]2CC[C@H](C1)N(Cc1cscn1)C2=O	19.5%
Cc1nn(C)cc1C(=O)N1CCCC(n2nnc3cc(F)ccc32)C1 (stereo not drawn)	2.604%
Fc1cnc(N2CCC3(CCCN(c4nncs4)C3)C2)nc1 (stereo not drawn)	1.307%
CCc1nc(C)c([C@H]2CN(C)C[C@@H]2C(=O)Nc2ccc(OC)nc2)[nH]1	17.6%
NS(=O)(=O)c1cnc(NCC2(c3ccccc3)CCC2)s1	10.14%
CN(C)S(=O)(=O)NCc1cccnc1Oc1ccc(F)c(F)c1	10.67%
CC(C)c1nncn1CCNC(=O)c1ccc(Cl)cc1O	13.98%
CC(=O)NCC(=O)Nc1cc(C)n(-c2ccc(Cl)cc2Cl)n1	14.41%
CCN1CCN(Cc2c(C3CCCC3)[nH]c3ncccc23)CC1	12.99%
CC(O)(CN1CCC(O)CC1)c1cccc(C(F)(F)F)c1 (stereo not drawn)	17.05%
N#Cc1ccc(N2CCN(C(=O)c3cc(C4CC4)[nH]n3)CC2)c(F)c1	8.571%
CCN1CCO[C@@H]2CN(S(=O)(=O)c3cccs3)CC[C@@H]2C1	9.836%
Cc1cc(CN(C)Cc2csc(-c3ccc(C(C)C)cc3)n2)no1	10.6%
O=C(CCN1CCSCC1c1ccccc1)N1CCOCC1 (stereo not drawn)	5.85%
Cc1cc(NCCNS(C)(=O)=O)nc2cc3c(cc12)CCC3	13.18%
O=C(Nc1ccccc1)C1=NOC2(CCCN(C(=O)C3CCCC3)C2)C1 (stereo not drawn)	4.061%
COCCOc1ccc(NC(=O)C2CC(=O)N(C(C)C)C2)cn1 (stereo not drawn)	23.89%
COc1ccccc1CN1CCc2c(nc(-c3ccccn3)[nH]c2=O)C1	14.06%
O=S(=O)(c1ccccc1F)N1CCCCC1c1cc[nH]n1 (stereo not drawn)	7.294%
Cc1nnc2n1CCN(C(=O)c1cnc(C3CC3)s1)C2	15.62%
CC(C)n1c(C2CCCN(Cc3ccnn3C)C2)nc2ccccc21 (stereo not drawn)	17.77%
Cc1ccc(Oc2cc(CN)ccn2)cc1C	11.15%
CN(C(=O)CN1CCCC1Cc1ccccc1)c1ccccc1 (stereo not drawn)	12.64%
CC1c2ncc(Cn3cccn3)n2CCN1c1ncccn1 (stereo not drawn)	7.625%
COC(=O)[C@H](C)NC(=O)Cn1ccc2ccc(F)cc21	19.41%
CCOC(C)c1nc(Cn2cc(-n3cccc3)cn2)cs1 (stereo not drawn)	13.17%
O=C(Nc1ccc(F)cc1)N1C[C@H]2C[C@H](C(=O)N3CCCC3)[C@@H](C1)O2	4.945%
Cc1ccc(C)c(S(=O)(=O)NC(=O)c2cccc3c2OCCO3)c1	10.18%
CC(=O)Nc1nc(C(=O)N2CCCC(n3ccnc3)C2)cs1 (stereo not drawn)	7.874%
CCC(CO)(CO)NC(=O)C1CCC(=O)N(CCc2ccccc2)C1 (stereo not drawn)	14.45%
COCCN1CCN(Cc2noc(C3CC3)n2)CC1C (stereo not drawn)	4.225%
COc1ccc(-c2ccc(C(=O)NS(C)(=O)=O)c(F)c2)c(F)c1	16.49%
O=c1[nH]c(-c2cccnc2)nc2c1CCN(S(=O)(=O)N1CCCC1)C2	4.077%
CCCC1CCCN(C(=O)Nc2ccnc(C(=O)N(C)C)c2)CC1 (stereo not drawn)	15.32%
C[C@@H]1CN(C(=O)C2CCS(=O)(=O)CC2)C[C@@]1(O)C1CC1	10.79%
CN1CCN(C(=O)c2csnn2)c2ccccc21	2.405%
O=C(Nc1cccc(Cl)c1)c1nn(C2CCS(=O)(=O)C2)c2c1CCCC2 (stereo not drawn)	14.79%
CN(C)CC1(O)CCN(Cc2cnc3c(-c4ccccc4)cnn3c2)C1 (stereo not drawn)	6.849%
COc1ccccc1CCNC(=O)CNCC1CN(C)CCO1 (stereo not drawn)	17.04%
Cc1ncc(C(=O)OCC2CCN(c3ccccc3)C2)s1 (stereo not drawn)	17.37%
Cc1cc(C)nc(C2(C)CCCN2CCO)n1 (stereo not drawn)	13.71%
CC1CCN(CC(O)CNc2ccc(Cl)cn2)CC1 (stereo not drawn)	8.807%
Cc1ccc(NC2CCN(C(=O)c3cc[nH]n3)CC2)nn1	11.22%
O=C(NCc1nnc2n1CCCCC2)N1CCc2ccccc2C1	17.49%
Cc1oc(C(=O)O)cc1S(=O)(=O)Nc1cccc(-n2nccc2C)c1	16.43%
N#Cc1ccc(CN2CCN(Cc3ccncc3Cl)CC2=O)cc1	4.91%
Cc1cc(N[C@H]2CCCC[C@@H]2O)n2nccc2n1	7.474%
NC(=O)C1CCCN1C(=O)c1cccc2c1OCO2 (stereo not drawn)	-3.655%
CCNC(=O)CN1CCC(OCC2CCCO2)CC1 (stereo not drawn)	21.24%
Cc1nc(CN2CCCCC2Cn2cccn2)nc2ccccc12 (stereo not drawn)	27.87%
CC(c1cccc(-c2ncccc2C#N)c1)N(C)C (stereo not drawn)	12.9%
Cc1cccc(N2CCN(C(=O)Nc3cnn(CC(N)=O)c3)CC2)c1	11.04%
COCC(=O)N1CCC2(COCc3cnc(NCc4ccco4)nc32)C1 (stereo not drawn)	19.29%
CN1CCc2c(C#N)c(NCc3ccncc3)n3cnnc3c2C1	18.66%
Cc1nnc(CN(Cc2ccccc2Br)C2CC2)o1	12.93%
Cc1ccc2nc(CN(C)Cc3ccc(C)o3)cc(=O)n2c1	15.62%
CC(C)NC(=O)N1CCC2(CC1)CCn1c(C3CC3)cnc12	1.449%
CCOC(=O)Cc1csc(NC(=O)c2cc3n(n2)CCCO3)n1	21.1%
CN(Cc1ccco1)C(=O)C1CCCc2ccccc21 (stereo not drawn)	-1.657%
CCn1cnnc1C1CCN(C(=O)c2cc(C)n(CC)c2C)CC1	18.52%
CCN(Cc1nc2c(cnn2C)c(=O)[nH]1)c1cccc(F)c1	12.5%
CN1CCOC(C)(C(=O)N2CCSCC2)C1 (stereo not drawn)	20%
Cc1ccc2c(n1)N(Cc1cccnc1)CCN(C(=O)C1CC=CC1)C2	12.88%